The supplement of paper PMC10849652
This is one part of the list. Residues, ends and D or L forms follow the SMILES beside them. *: point of attachment. Cbz = O=C(OCc1ccccc1)*

By UniProt entry, the sequences of proteins in these tests, tags left out. Where a name states a change or a piece, a line headed by the entry shows the natural chain unless it says otherwise.
UniProt P49368: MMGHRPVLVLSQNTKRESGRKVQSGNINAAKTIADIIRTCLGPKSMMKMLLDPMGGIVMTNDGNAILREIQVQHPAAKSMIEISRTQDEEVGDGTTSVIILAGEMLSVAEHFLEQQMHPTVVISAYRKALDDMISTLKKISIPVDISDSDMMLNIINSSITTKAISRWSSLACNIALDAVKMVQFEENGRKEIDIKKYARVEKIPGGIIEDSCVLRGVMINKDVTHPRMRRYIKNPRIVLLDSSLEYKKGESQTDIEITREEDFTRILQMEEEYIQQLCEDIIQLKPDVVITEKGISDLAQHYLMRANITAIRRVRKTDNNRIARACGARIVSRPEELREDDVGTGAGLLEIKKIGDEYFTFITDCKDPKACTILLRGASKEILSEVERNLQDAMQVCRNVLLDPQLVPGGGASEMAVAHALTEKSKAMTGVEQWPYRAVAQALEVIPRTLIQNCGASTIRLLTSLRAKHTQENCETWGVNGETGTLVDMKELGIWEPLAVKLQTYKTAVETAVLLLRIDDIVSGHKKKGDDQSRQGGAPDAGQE
UniProt Q13042, whole entry, looked up: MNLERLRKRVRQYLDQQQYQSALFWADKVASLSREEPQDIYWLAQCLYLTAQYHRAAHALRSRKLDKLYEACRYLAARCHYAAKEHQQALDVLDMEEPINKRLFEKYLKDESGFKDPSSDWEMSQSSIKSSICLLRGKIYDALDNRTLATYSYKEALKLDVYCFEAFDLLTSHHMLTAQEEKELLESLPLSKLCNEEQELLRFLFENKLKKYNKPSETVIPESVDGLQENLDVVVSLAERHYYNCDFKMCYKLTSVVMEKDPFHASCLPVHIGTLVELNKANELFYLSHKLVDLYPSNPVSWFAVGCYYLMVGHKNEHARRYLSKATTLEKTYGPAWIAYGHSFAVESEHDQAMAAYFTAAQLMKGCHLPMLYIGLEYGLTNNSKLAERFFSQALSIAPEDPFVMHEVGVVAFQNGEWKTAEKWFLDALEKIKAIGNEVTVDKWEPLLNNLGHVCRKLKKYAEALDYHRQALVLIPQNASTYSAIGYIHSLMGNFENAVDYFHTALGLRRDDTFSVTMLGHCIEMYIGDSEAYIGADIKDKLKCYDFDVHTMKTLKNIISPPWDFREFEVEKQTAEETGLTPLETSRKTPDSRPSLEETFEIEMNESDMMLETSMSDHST
UniProt Q96NT0: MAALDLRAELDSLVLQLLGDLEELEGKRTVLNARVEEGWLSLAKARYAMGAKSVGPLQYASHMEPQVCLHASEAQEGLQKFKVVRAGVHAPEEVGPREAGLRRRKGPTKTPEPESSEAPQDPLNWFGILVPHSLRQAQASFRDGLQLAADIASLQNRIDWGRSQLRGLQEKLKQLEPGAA
UniProt P60953, whole entry, looked up: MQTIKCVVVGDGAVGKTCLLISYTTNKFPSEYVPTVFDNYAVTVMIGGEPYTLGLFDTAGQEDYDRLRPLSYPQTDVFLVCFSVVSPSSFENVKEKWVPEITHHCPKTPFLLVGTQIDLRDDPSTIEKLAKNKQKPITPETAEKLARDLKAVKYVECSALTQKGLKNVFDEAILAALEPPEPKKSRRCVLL
UniProt P49427: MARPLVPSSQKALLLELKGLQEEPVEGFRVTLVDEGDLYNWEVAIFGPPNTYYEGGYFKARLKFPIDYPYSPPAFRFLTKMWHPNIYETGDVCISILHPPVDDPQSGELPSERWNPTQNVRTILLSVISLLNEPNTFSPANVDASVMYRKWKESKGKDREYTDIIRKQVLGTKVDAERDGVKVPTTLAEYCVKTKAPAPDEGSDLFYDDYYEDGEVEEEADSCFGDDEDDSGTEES
UniProt P78371: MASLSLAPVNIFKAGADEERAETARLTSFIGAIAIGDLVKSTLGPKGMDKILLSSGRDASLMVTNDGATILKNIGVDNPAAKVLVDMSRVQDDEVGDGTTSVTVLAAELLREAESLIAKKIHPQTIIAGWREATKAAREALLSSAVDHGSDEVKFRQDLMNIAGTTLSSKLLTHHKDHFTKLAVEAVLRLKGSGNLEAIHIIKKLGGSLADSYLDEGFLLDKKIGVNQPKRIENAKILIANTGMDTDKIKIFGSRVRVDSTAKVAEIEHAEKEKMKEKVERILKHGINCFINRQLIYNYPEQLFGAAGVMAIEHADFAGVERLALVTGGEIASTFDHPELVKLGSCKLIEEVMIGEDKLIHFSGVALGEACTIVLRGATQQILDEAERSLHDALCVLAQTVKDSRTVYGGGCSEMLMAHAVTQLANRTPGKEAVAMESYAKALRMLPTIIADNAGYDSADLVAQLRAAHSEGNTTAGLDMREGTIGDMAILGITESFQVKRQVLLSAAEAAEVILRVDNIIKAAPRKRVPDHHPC
UniProt Q96CT7: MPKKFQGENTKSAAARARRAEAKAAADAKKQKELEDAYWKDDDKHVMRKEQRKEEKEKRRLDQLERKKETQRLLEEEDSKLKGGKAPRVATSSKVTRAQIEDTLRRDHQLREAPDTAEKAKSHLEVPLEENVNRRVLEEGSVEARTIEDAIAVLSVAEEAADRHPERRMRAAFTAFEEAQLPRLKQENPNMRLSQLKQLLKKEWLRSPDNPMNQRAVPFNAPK
UniProt O95067, whole entry, looked up: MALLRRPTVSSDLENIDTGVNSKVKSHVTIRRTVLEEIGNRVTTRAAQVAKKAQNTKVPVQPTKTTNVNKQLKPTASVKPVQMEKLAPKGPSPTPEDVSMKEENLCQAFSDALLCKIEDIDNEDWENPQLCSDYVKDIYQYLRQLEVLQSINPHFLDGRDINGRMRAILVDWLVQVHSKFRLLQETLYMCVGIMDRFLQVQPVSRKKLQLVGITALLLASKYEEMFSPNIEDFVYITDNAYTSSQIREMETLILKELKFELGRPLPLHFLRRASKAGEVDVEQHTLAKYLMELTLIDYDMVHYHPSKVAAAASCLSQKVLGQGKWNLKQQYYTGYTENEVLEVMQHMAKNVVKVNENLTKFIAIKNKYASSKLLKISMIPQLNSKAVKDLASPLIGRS
UniProt Q16204: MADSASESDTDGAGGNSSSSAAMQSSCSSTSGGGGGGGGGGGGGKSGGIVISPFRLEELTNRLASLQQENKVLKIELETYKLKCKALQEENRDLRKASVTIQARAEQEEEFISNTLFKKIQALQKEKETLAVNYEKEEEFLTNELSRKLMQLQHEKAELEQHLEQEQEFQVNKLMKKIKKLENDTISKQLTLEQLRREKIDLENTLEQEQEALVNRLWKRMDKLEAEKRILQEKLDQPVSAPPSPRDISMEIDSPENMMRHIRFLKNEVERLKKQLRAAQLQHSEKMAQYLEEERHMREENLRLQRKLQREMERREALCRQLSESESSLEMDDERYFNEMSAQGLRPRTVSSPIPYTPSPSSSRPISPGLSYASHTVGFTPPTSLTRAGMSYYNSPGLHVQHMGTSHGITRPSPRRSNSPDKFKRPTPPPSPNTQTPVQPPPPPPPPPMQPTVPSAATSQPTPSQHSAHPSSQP
UniProt P04040: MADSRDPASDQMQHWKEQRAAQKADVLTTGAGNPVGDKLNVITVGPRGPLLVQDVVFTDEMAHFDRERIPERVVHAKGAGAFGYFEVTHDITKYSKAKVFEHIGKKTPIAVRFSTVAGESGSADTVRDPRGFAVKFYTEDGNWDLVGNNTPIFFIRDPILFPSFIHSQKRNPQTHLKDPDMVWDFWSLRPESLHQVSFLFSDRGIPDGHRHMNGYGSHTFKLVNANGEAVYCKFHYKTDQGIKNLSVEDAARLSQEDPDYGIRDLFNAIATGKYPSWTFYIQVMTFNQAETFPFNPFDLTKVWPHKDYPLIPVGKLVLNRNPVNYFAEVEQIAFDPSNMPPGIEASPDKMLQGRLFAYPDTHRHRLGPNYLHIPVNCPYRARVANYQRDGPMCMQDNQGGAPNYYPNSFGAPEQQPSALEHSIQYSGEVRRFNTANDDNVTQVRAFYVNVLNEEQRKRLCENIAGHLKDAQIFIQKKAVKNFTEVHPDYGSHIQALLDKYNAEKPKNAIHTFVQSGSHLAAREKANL
UniProt Q8N4T8: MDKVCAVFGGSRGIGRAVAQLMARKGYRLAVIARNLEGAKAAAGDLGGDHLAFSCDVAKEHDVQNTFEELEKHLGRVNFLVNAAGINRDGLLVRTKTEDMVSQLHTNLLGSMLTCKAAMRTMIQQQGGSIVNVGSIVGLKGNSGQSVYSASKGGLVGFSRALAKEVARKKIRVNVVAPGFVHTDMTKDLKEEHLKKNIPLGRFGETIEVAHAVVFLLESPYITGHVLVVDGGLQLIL
UniProt P49589: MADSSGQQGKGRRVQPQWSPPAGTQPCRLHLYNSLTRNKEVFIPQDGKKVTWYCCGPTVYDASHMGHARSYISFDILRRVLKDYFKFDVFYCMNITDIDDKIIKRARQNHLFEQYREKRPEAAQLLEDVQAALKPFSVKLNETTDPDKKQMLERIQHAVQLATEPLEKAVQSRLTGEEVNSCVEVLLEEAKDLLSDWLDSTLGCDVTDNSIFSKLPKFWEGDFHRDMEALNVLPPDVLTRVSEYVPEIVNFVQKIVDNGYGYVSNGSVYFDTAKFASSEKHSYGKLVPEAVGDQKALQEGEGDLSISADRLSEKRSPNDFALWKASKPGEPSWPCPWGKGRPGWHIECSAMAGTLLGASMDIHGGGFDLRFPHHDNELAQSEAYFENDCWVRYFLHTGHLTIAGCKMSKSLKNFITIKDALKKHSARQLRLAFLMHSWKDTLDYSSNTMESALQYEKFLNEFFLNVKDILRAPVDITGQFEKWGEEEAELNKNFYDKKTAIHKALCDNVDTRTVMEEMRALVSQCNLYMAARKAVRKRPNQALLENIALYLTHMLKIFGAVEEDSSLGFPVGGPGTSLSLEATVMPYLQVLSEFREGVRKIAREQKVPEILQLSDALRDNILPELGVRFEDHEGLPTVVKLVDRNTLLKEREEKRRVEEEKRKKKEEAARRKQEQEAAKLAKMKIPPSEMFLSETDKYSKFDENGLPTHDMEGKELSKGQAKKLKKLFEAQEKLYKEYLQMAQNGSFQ
UniProt Q9BV29: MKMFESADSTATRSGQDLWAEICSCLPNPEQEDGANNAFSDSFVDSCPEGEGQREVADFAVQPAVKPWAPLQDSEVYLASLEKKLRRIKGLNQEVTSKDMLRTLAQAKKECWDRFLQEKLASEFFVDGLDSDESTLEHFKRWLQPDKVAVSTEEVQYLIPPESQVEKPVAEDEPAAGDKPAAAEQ
UniProt Q8IVM0: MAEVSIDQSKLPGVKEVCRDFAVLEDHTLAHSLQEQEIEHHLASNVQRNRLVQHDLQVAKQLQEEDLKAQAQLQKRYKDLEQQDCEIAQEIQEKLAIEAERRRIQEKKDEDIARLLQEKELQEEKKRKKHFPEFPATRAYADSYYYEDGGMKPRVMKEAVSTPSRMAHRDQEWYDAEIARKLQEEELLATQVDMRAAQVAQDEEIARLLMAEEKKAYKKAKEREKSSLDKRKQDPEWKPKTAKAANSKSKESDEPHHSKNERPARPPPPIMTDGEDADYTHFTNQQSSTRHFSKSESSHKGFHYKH
UniProt Q9H6E4: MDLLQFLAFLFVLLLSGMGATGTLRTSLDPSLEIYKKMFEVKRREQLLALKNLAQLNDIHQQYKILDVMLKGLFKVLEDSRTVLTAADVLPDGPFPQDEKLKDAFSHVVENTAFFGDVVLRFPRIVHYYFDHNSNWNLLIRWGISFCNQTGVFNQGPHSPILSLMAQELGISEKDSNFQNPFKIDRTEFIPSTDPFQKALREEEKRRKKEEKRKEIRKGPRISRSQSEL

Columns and labels:
Test in all cases: log2 fold change, soluble protein after heating vs DMSO (PISA); higher = thermal stabilisation; K562 cells, 10 uM, 30 min; active = over 0.2 and 3.5 SD of the protein, either way, in both replicates (recomputed)
IRAK-1-4 Inhibitor I = compound: C1COCCN1CCN2C3=CC=CC=C3N=C2NC(=O)C4=CC(=CC=C4)[N+](=O)[O-] [IRAK-1-4 Inhibitor I]
Outline: (§1)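 Aliquots of K562 cells (2×10^6 cells/mL) treated with 10 μM compound for 30 min were heated for 3 min over 48°C-58°C. After pooling and extraction in PBS with 0.5% NP-40 at 4°C, soluble protein from a 21,000xg, 90 min spin was quantified by TMTpro 16plex LC-MS/MS with channel sums equalised. Thermal stability is expressed against control samples, from duplicates, as a log2 fold change.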

ibrutinib = compound: C=CC(=O)N1CCC[C@@H](n2nc(-c3ccc(Oc4ccccc4)cc3)c3c(N)ncnc32)C1 [ibrutinib]
Outline: as §1

[1] = compound: CC(=O)c1cnc2ccc(-c3cc(Cl)c(O)c(Cl)c3)nc2c1N[C@H]1CC[C@H](CN(C)C)CC1
Outline: as §1

ralimetinib = compound: CC(C)(C)Cn1c(N)nc2ccc(-c3[nH]c(C(C)(C)C)nc3-c3ccc(F)cc3)nc21 [ralimetinib]
Outline: as §1

[2] = compound: CC(C)(O)CC(=O)NCCn1ccc2ncnc(Nc3ccc(Oc4cccc(C(F)(F)F)c4)c(Cl)c3)c21
Outline: as §1

[3] = compound: CC(C)C1=C2N=C(C=C(N2N=C1)NCC3=CC=CC=C3)NCCCCCCN
Outline: as §1

[4] = compound: CC(C)C[C@@H](C=O)NC(=O)[C@H](CC(C)C)NC(=O)[C@H](CC(C)C)NC(=O)OCc1ccccc1
Outline: as §1

pinometostat = compound: CC(C)N(C[C@H]1O[C@@H](n2cnc3c(N)ncnc32)[C@H](O)[C@@H]1O)[C@H]1C[C@@H](CCc2nc3cc(C(C)(C)C)ccc3[nH]2)C1 [pinometostat]
Outline: as §1

[5] = compound: CC1=C(C(CC(=O)N1)C2=CC=C(C=C2)C(F)(F)F)C(=O)NC3=C(C=C4C(=C3)C=NN4)F
Outline: as §1

[6] = compound: CC1=C(C2=C(C=C1)C(=O)C3=CC=CC=C3N2CCCN)C
Outline: as §1

[7] = compound: CC1=C(C=C(C=C1)NC(=O)C2=CC(=CC=C2)C(C)(C)C#N)NC3=CC4=C(C=C3)N=CN(C4=O)C
Outline: as §1

[8] = compound: CC1=C(C=C(C=C1)NC(=O)C2=CC(=CC=C2)N(C)C)NC(=O)C3=CC=C(C=C3)O
Outline: as §1

[9] = compound: CC1=CC=C(C=C1)SC2=C3C=C(SC3=CN=C2)C(=O)N
Outline: as §1

[10] = compound: CC1=NC(=CC=C1)C2=C(N=C(N2)C(C)(C)C)C3=CC4=NC=CN=C4C=C3
Outline: as §1

Nexturastat A = compound: CCCCN(Cc1ccc(C(=O)NO)cc1)C(=O)Nc1ccccc1 [Nexturastat A]
Outline: as §1

vemurafenib = compound: CCCS(=O)(=O)Nc1ccc(F)c(C(=O)c2c[nH]c3ncc(-c4ccc(Cl)cc4)cc23)c1F [vemurafenib]
Outline: as §1

[11] = compound: CCCS(=O)(=O)Nc1ccc(F)c(C(=O)c2c[nH]c3ncc(Cl)cc23)c1F
Outline: as §1

[12] = compound: CCCc1cc(C)[nH]c(=O)c1CNC(=O)c1cc(-c2ccnc(N3CCN(C)CC3)c2)cc2c1cnn2C(C)C
Outline: as §1

givinostat = compound: CCN(CC)Cc1ccc2cc(COC(=O)Nc3ccc(C(=O)NO)cc3)ccc2c1 [givinostat]
Outline: as §1

barasertib = compound: CCN(CCCOc1ccc2c(Nc3cc(CC(=O)Nc4cccc(F)c4)[nH]n3)ncnc2c1)CCOP(=O)(O)O [barasertib]
Outline: as §1

Measured: log2 fold change

CCT3 (UniProt P49368)
inactive: IRAK-1-4 Inhibitor I 0.034 | ibrutinib 0.019 | [1] -0.002 | ralimetinib 0.006 | [2] 0.03 | [3] 0.03 | [4] -0.033 | pinometostat -0.023 | [5] 0.038 | [6] 0.031 | [7] -0.032 | [8] 0.003 | [9] -0.019 | [10] -0.012 | Nexturastat A 0.028 | vemurafenib -0.006 | [11] -0.043 | [12] -0.017 | givinostat -0.024 | barasertib -0.01

CDC16 (UniProt Q13042)
inactive: IRAK-1-4 Inhibitor I -0.061 | ibrutinib -0.032 | [1] -0.001 | ralimetinib 0.008 | [2] -0.011 | [3] -0.049 | [4] 0.039 | pinometostat 0.09 | [5] 0.007 | [6] -0.042 | [7] 0.026 | [8] 0.003 | [9] -0.015 | [10] -0.007 | Nexturastat A -0.086 | vemurafenib 0.023 | [11] 0.043 | [12] 0.022 | givinostat -0.049 | barasertib -0.004

CCDC115 (UniProt Q96NT0)
inactive: IRAK-1-4 Inhibitor I 0.024 | ibrutinib 0.011 | [1] 0.036 | ralimetinib -0.065 | [2] -0.002 | [3] 0.083 | [4] -0.012 | pinometostat -0.043 | [5] -0.008 | [6] -0.041 | [7] -0.044 | [8] -0.041 | [9] -0.067 | [10] 0.055 | Nexturastat A -0.014 | vemurafenib 0.069 | [11] 0.008 | [12] 0.009 | givinostat 0.057 | barasertib 0.026

CDC42 isoform 1 (UniProt P60953)
inactive: IRAK-1-4 Inhibitor I 0.029 | ibrutinib -0.014 | [1] 0.007 | ralimetinib -0.053 | [2] 0.042 | [3] 0.081 | [4] -0.046 | pinometostat -0.026 | [5] 0.02 | [6] -0.044 | [7] 0.042 | [8] 0.008 | [9] 0.019 | [10] -0.03 | Nexturastat A -0.05 | vemurafenib -0.041 | [11] -0.017 | [12] -0.05 | givinostat -0.02 | barasertib -0.005

CDC34 (UniProt P49427)
inactive: IRAK-1-4 Inhibitor I -0.066 | ibrutinib -0.062 | [1] -0.034 | ralimetinib 0.006 | [2] -0.125 | [3] -0.177 | [4] -0.068 | pinometostat -0.009 | [5] -0.002 | [6] 0.127 | [7] 0.042 | [8] 0.018 | [9] 0.032 | [10] -0.096 | Nexturastat A 0.096 | vemurafenib 0.047 | [11] 0 | [12] 0.102 | givinostat 0.359 | barasertib 0.094

CCT2 (UniProt P78371)
inactive: IRAK-1-4 Inhibitor I 0.021 | ibrutinib -0.017 | [1] 0.026 | ralimetinib 0.008 | [2] -0.018 | [3] 0.013 | [4] -0.022 | pinometostat -0.028 | [5] 0.014 | [6] 0.007 | [7] 0.009 | [8] 0.003 | [9] 0.009 | [10] 0.028 | Nexturastat A -0.078 | vemurafenib 0.023 | [11] -0.009 | [12] -0.008 | givinostat -0.02 | barasertib -0.021

CCDC124 (UniProt Q96CT7)
inactive: IRAK-1-4 Inhibitor I -0.059 | ibrutinib -0.018 | [1] 0.048 | ralimetinib 0.032 | [2] 0.004 | [3] 0.068 | [4] 0.056 | pinometostat 0.023 | [5] -0.005 | [6] 0.124 | [7] 0.01 | [8] -0.013 | [9] 0.001 | [10] -0.013 | Nexturastat A -0.033 | vemurafenib -0.028 | [11] -0.032 | [12] -0.04 | givinostat -0.022 | barasertib -0.062

CCNB2 (UniProt O95067)
inactive: IRAK-1-4 Inhibitor I 0.005 | ibrutinib 0.028 | [1] -0.155 | ralimetinib 0.035 | [2] -0.058 | [3] -0.078 | [4] 0.064 | pinometostat -0.019 | [5] -0.067 | [6] 0.054 | [7] 0.039 | [8] -0.007 | [9] -0.002 | [10] 0.062 | Nexturastat A 0.03 | vemurafenib 0.047 | [11] 0.025 | [12] -0.054 | givinostat 0.004 | barasertib 0.01

CCDC6 (UniProt Q16204)
inactive: IRAK-1-4 Inhibitor I 0.056 | ibrutinib -0.019 | [1] -0.021 | ralimetinib -0.029 | [2] 0 | [3] 0.048 | [4] 0.047 | pinometostat -0.003 | [5] -0.001 | [6] 0.015 | [7] -0.039 | [8] -0.032 | [9] 0.003 | [10] 0.005 | Nexturastat A -0.078 | vemurafenib 0.029 | [11] 0.011 | [12] -0.016 | givinostat 0.005 | barasertib -0.008

CDC42 (UniProt P60953)
inactive: IRAK-1-4 Inhibitor I 0.095 | ibrutinib 0.123 | [1] 0.068 | ralimetinib 0.025 | [2] -0.006 | [3] 0.153 | [4] -0.099 | pinometostat -0.11 | [5] 0.085 | [6] 0.011 | [7] -0.006 | [8] -0.014 | [9] 0.033 | [10] 0.083 | Nexturastat A 0.008 | vemurafenib 0 | [11] 0.026 | [12] 0.074 | givinostat -0.123 | barasertib -0.031

CAT (UniProt P04040)
inactive: IRAK-1-4 Inhibitor I 0.04 | ibrutinib 0.019 | [1] 0.036 | ralimetinib -0.022 | [2] 0.007 | [3] 0.053 | [4] -0.037 | pinometostat -0.031 | [5] -0.005 | [6] 0.021 | [7] -0.017 | [8] 0.006 | [9] 0.188 | [10] 0.008 | Nexturastat A -0.073 | vemurafenib 0.009 | [11] -0.002 | [12] 0.009 | givinostat 0.002 | barasertib 0.012

CBR4 (UniProt Q8N4T8)
inactive: IRAK-1-4 Inhibitor I 0.067 | ibrutinib 0.024 | [1] -0.017 | ralimetinib -0.013 | [2] -0.025 | [3] 0.023 | [4] -0.031 | pinometostat -0.018 | [5] 0.028 | [6] 0.031 | [7] -0.007 | [8] 0.025 | [9] 0.026 | [10] -0.007 | Nexturastat A 0.03 | vemurafenib -0.057 | [11] -0.022 | [12] -0.023 | givinostat -0.021 | barasertib -0.022

CARS isoform 3 (UniProt P49589)
inactive: IRAK-1-4 Inhibitor I 0.033 | ibrutinib -0.009 | [1] 0.002 | ralimetinib -0.035 | [2] -0.024 | [3] -0.033 | [4] 0.01 | pinometostat -0.022 | [5] 0.001 | [6] -0.004 | [7] -0.001 | [8] 0.01 | [9] 0.006 | [10] 0.014 | Nexturastat A -0.036 | vemurafenib -0.016 | [11] 0.025 | [12] -0.006 | givinostat -0.017 | barasertib 0.006

CCDC32 isoform 2 (UniProt Q9BV29)
inactive: IRAK-1-4 Inhibitor I 0.05 | ibrutinib 0.022 | [1] -0.07 | ralimetinib 0.01 | [2] 0 | [3] 0.045 | [4] -0.068 | pinometostat -0.056 | [5] 0.011 | [6] 0.004 | [7] 0.004 | [8] -0.008 | [9] 0.022 | [10] 0.053 | Nexturastat A 0.069 | vemurafenib -0.012 | [11] -0.017 | [12] -0.232 | givinostat -0.004 | barasertib -0.018

Two consecutive entries already listed:
CARS isoform 3 (UniProt P49589)
inactive: IRAK-1-4 Inhibitor I 0.033 | ibrutinib -0.009 | [1] 0.002 | ralimetinib -0.035 | [2] -0.024 | [3] -0.033 | [4] 0.01 | pinometostat -0.022 | [5] 0.001 | [6] -0.004 | [7] -0.001 | [8] 0.01 | [9] 0.006 | [10] 0.014 | Nexturastat A -0.036 | vemurafenib -0.016 | [11] 0.025 | [12] -0.006 | givinostat -0.017 | barasertib 0.006

CCDC32 isoform 2 (UniProt Q9BV29)
inactive: IRAK-1-4 Inhibitor I 0.05 | ibrutinib 0.022 | [1] -0.07 | ralimetinib 0.01 | [2] 0 | [3] 0.045 | [4] -0.068 | pinometostat -0.056 | [5] 0.011 | [6] 0.004 | [7] 0.004 | [8] -0.008 | [9] 0.022 | [10] 0.053 | Nexturastat A 0.069 | vemurafenib -0.012 | [11] -0.017 | [12] -0.232 | givinostat -0.004 | barasertib -0.018

Continued:

CCDC50 (UniProt Q8IVM0)
inactive: IRAK-1-4 Inhibitor I 0.034 | ibrutinib 0.077 | [1] 0.003 | ralimetinib -0.096 | [2] -0.016 | [3] 0.026 | [4] 0.009 | pinometostat -0.018 | [5] -0.008 | [6] -0.007 | [7] -0.02 | [8] 0.013 | [9] -0.032 | [10] -0.029 | Nexturastat A -0.083 | vemurafenib 0.014 | [11] -0.037 | [12] -0.05 | givinostat -0.026 | barasertib 0.025

CCDC134 (UniProt Q9H6E4)
inactive: IRAK-1-4 Inhibitor I 0.033 | ibrutinib -0.014 | [1] 0.016 | ralimetinib -0.023 | [2] 0.045 | [3] -0.042 | [4] 0.006 | pinometostat 0.062 | [5] 0.032 | [6] -0.061 | [7] 0.019 | [8] 0.049 | [9] 0.025 | [10] -0.021 | Nexturastat A 0.039 | vemurafenib -0.034 | [11] -0.005 | [12] 0.026 | givinostat 0.039 | barasertib -0.007
